Source: article PMC10933653
Construct, isoform or probe ends are uncertain for at least one entry. For part of these data: No signal at the amounts used counts as a negative. For part of these data: Tags and fusion partners may be left off the protein sequences shown. For part of these data: Weaker means in comparison with the reference protein, sequence or condition of that experiment. For part of these data: At least one verdict was read from the data and is not stated in words by the source.

By UniProt entry, the sequences of proteins in these tests, tags left out. Where a name states a change or a piece, a line headed by the entry shows the natural chain unless it says otherwise.
UniProt O00625: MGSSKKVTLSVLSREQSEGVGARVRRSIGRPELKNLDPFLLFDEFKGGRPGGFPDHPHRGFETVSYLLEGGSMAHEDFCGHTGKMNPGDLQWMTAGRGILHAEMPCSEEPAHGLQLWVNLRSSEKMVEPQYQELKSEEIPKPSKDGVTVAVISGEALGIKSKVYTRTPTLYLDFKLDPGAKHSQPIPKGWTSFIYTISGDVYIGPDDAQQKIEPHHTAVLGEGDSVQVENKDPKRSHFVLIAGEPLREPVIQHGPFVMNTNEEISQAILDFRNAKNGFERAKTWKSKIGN

Key:
Assay in all cases: EMSA
[1] = target: T1, GST-p50 (activated form of NFkB1) (UniProt P19838); details: 20 nM probe, 20 nM protein; EMSA on non-denaturing polyacrylamide gel, 20 nM 3' FAM probe, E. coli purified proteins; pH and temperature not stated (cited method); recombinant protein; protein details: GST; label: 3' FAM
T1 sequence (looked up, limits assumed): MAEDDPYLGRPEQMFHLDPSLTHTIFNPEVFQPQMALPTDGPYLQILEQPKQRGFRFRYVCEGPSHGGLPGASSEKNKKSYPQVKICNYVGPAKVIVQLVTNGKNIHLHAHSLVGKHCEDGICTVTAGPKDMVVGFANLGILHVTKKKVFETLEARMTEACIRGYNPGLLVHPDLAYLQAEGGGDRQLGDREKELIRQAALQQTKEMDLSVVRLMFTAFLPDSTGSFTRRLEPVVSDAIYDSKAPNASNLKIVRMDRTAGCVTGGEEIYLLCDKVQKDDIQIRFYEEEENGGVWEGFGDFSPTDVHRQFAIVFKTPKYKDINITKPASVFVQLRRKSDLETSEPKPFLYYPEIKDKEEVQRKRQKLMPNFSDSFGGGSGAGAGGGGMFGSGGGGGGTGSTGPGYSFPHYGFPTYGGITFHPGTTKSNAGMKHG

[2] = system: GST-p52 (activated form of NFkB2) + RELB; details: EMSA on non-denaturing polyacrylamide gel, 20 nM 3' FAM probe, E. coli purified proteins, pH and temperature not stated (cited method), recombinant protein, protein details: GST, label: 3' FAM
[3] = target: T2, GST-p52 (activated form of NFkB2) (Homo sapiens) (UniProt Q00653); details: EMSA on non-denaturing polyacrylamide gel, 20 nM 3' FAM probe, E. coli purified proteins, pH and temperature not stated (cited method), recombinant protein, protein details: GST, label: 3' FAM
T2 sequence (looked up, limits assumed): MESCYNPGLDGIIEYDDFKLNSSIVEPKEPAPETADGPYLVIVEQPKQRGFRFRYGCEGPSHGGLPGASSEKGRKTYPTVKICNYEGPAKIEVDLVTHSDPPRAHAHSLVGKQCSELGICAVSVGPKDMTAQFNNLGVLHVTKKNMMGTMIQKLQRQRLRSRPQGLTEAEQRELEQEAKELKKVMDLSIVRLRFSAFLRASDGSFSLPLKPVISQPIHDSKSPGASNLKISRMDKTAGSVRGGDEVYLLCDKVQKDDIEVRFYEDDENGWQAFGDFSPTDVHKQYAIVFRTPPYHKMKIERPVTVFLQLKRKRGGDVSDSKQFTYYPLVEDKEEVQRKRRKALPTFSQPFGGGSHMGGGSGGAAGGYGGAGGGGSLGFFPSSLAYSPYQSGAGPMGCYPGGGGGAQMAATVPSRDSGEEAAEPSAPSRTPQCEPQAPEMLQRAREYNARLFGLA

[4] = target: GST-PIR (pirin) (Homo sapiens) (UniProt O00625); details: 20 nM probe, increasing GST-PIR; EMSA on non-denaturing polyacrylamide gel, 20 nM 3' FAM probe, E. coli purified proteins; pH and temperature not stated (cited method); recombinant protein; residues 1-290; protein details: GST; label: 3' FAM

AACGTCTGTGAGCCTCTCATGTTGCAGCCA (double strand) [FAS promoter 3'-2a probe]
binding result [1]: no binding
binding result ([2]; 20 nM probe, without PIR): binds
binding result ([2]; with PIR, PIR disrupts binding of p52-RELB): binds more weakly
binding result ([3]; 20 nM probe, 20 nM protein): binds
binding result ([3]; increasing GST-PIR, binding not influenced): binds
binding result [4]: no binding
